# Reference: PubChem BioAssay AID588590 (National Center for Advancing Translational Sciences (NCATS), 2011)
# Sequences of proteins named here, by UniProt entry; tags and fusion partners are left off. A change or cut given only in a name is not applied to a line headed by its entry.
# UniProt Q9UNA4: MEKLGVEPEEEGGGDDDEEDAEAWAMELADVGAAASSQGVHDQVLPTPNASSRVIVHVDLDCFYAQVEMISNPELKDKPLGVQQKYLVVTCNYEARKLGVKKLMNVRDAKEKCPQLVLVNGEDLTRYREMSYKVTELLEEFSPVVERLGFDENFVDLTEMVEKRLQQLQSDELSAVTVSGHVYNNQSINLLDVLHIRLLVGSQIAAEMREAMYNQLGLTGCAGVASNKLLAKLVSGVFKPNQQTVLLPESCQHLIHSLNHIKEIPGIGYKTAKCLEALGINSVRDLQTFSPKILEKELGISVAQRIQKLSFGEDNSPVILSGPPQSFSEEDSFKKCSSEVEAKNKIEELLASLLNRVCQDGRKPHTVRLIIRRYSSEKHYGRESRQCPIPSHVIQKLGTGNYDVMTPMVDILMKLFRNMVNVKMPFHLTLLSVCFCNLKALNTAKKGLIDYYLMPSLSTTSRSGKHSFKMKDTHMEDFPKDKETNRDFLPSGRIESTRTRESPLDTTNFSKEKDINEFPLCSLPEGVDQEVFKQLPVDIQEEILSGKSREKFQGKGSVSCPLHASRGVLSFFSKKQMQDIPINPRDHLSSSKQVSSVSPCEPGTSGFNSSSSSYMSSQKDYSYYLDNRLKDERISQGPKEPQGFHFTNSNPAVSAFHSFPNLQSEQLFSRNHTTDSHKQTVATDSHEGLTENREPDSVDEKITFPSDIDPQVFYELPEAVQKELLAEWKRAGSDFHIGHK
# The campaign covered roughly 390,000 compounds. About 4,000 (1%) were called active. The shares of active, inactive and inconclusive entries below differ from those in the screen. Calls follow the shape of the dose curve; as a rule, active = well fitted inhibition curve with a large enough effect; inconclusive = small, poorly fitted or top-dose-only effect, or another doubt; inactive = no such curve, though single readings can be large or run the other way. Potencies of inconclusive entries are doubtful fits and often do not repeat.
# Molecular target: DNA polymerase iota (Homo sapiens) (UniProt Q9UNA4)
# Experiment: qHTS for Inhibitors of Polymerase Iota
# Conditions: Pol iota fluorescent replication assay, 10 min; series mostly up to 115 µM
# How it was run: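 Fluorescent replication assay read twice, at 0 min and 10 min after adding 50 nM (final) substrate. Enzyme (10 nM) and compounds were first incubated 15 min at room temperature; enzyme-free buffer wells were negative controls.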
# Potency is read from the fitted curve at half-maximal effect.
row,Structure (SMILES),Potency
1,CCN(CC)c1ccc2cc(-c3nc(-c4cc5ccccc5oc4=O)cs3)c(=O)oc2c1,"inconclusive: 11.2 µM [inhibitor, partial curve, poor fit]"
2,Cc1ccc(NC(=O)c2ccc(CNS(=O)(=O)c3ccc4c(c3)C(C)(C)C(=O)N4C)cc2)cc1C,inactive
3,CCc1ccc(NC(=O)C(C)Sc2nnc(CN3CCCC3)o2)cc1 (stereo not given),inactive
4,O=C(CCn1ccc2cc(S(=O)(=O)N3CCCC3)ccc21)NCc1cccc(Cl)c1,"inconclusive: 3.55 µM [inhibitor, full curve, poor fit]"
5,O=C1NC(=S)N/C1=C/c1cc([N+](=O)[O-])ccc1O,"inconclusive: 35.5 µM [inhibitor, single point]"
6,COc1ccc(CN2CCN(C(=O)c3cccs3)CC2)c(OC)c1OC,"inconclusive: 3.55 µM [inhibitor, single point]"
7,CC1CCCCN1C(=O)CN1C(=O)CSc2ccc(S(=O)(=O)N3CCOCC3)cc21 (stereo not given),"inconclusive: 89.1 µM [inhibitor, single point]"
8,COc1ccc(OC)c(Nc2ncnc3c2nc2n3CCCC2)c1,inactive
9,Cc1ccc(C(=O)/C=C/C(=O)O)cc1,"inconclusive: 1.26 µM [inhibitor, full curve, poor fit]"
10,CC1CN(S(=O)(=O)c2cccc(C(=O)OCC(=O)Nc3ccc4c(c3)OCO4)c2)CC(C)O1 (stereo not given),"inconclusive: 39.8 µM [inhibitor, single point]"
11,O=[N+]([O-])c1ccc(S(=O)(=O)Nc2ccc3c(c2)OCCO3)cc1,"inconclusive: 39.8 µM [inhibitor, single point]"
12,N#Cc1c2n(c3c(=O)n(Cc4ccc(Cl)cc4)cnc13)CCCC2,"inconclusive: 39.8 µM [inhibitor, partial curve, poor fit]"
13,COc1ccc(N/C=C/C(=O)c2ccccc2)cc1,"inconclusive: 22.4 µM [inhibitor, partial curve, poor fit]"
14,CC(=O)n1nc(-c2ccco2)nc1N,"inconclusive: 39.8 µM [inhibitor, single point]"
15,Cc1cccc(OCC(=O)N/N=C/C=C/c2ccco2)c1,"inconclusive: 20 µM [inhibitor, full curve, poor fit]"
16,CSc1ccc(CCNC(=O)C(C)n2nc(C)c3sc4ccccc4c3c2=O)cc1 (stereo not given),inactive
17,Cc1cc(CC(=O)O)c2oc(-c3ccoc3)cc(=O)c2c1,"inconclusive: 10 µM [inhibitor, full curve, poor fit]"
18,CCc1ccccc1NC(=O)c1ccc2c(SCC(=O)O)c3c(nc2c1)CCC3,"inconclusive: 25.1 µM [inhibitor, full curve, poor fit]"
19,O=C(COc1cc(Cl)c(Cl)cc1Cl)Nc1cccc(O)c1,"inconclusive: 63.1 µM [inhibitor, partial curve, poor fit]"
20,Cc1ccccc1-n1c(=O)cc(N2CCCCCC2)[nH]c1=O,"inconclusive: 39.8 µM [inhibitor, partial curve, poor fit]"

row,Structure (SMILES),Potency
1,COc1cc(/C=C2\SC(=S)N(NC(=O)c3cccnc3)C2=O)ccc1O,active: 15.8 µM
2,CC(NS(C)(=O)=O)C(c1cccs1)N1CCN(c2ccccc2)CC1 (stereo not given),"inconclusive: 100 µM [inhibitor, single point]"
3,C/C(=C\C(=O)c1ccccc1)Nc1ccc(Cl)c(Br)c1,"inconclusive: 39.8 µM [inhibitor, single point]"
4,CCC(C)Nc1nc2c(c(=O)[nH]c(=O)n2C)n1CCC(C)C (stereo not given),"inconclusive: 112 µM [inhibitor, partial curve, poor fit]"
5,Cc1c(CCCC(=O)O)sc(N)c1C(=O)c1cccc(C(F)(F)F)c1,"inconclusive: 12.6 µM [inhibitor, partial curve, poor fit]"
6,Cc1ccc(Cl)cc1N1CCN(C(=O)CCCn2c(=O)[nH]c3ccc(Br)cc3c2=O)CC1,"inconclusive: 100 µM [inhibitor, partial curve, poor fit]"
7,O=C(NCCS(=O)(=O)N1CCN(c2ccc(F)cc2)CC1)c1cccc(C(F)(F)F)c1,inactive
8,CC1Cc2ccccc2N1C(=O)CSc1nc2c(c(=O)n(C)c(=O)n2C)n1Cc1ccccc1 (stereo not given),"inconclusive: 89.1 µM [inhibitor, partial curve, poor fit]"
9,CNC(=O)C(=O)Nc1nc(C23CC4CC(CC(C4)C2)C3)cs1,"inconclusive: 79.4 µM [inhibitor, partial curve, poor fit]"
10,COc1ccc(Cn2c(O)cc(=O)[nH]c2=O)cc1,"inconclusive: 15.8 µM [inhibitor, partial curve, poor fit]"
11,CC(C)CCn1nnc2sc(-c3ccccc3)cc2c1=O,inactive
12,CCOc1ccc2nc(SC3CC(=O)N(c4ccc(C)cc4)C3=O)sc2c1 (stereo not given),"inconclusive: 70.8 µM [inhibitor, single point]"
13,N#Cc1ccc(COC(=O)c2cnc3ccccc3n2)cc1,"inconclusive: 89.1 µM [inhibitor, partial curve, poor fit]"
14,CCOC(=O)c1ccc(S(=O)(=O)N2CCN(c3nc(-c4cccs4)nc4ccccc34)CC2)cc1,"inconclusive: 89.1 µM [inhibitor, single point]"
15,CC(=O)Nc1c2c(nn1-c1cccc(C)c1)CSC2,active: 50.1 µM
16,CNS(=O)(=O)c1cc(O)c2c(S(=O)(=O)NC)cccc2c1,"inconclusive: 39.8 µM [inhibitor, single point]"
17,Cc1cc(C)n2nc(/C(C#N)=C/c3ccccn3)c(C#N)c2n1,"inconclusive: 20 µM [inhibitor, partial curve, poor fit]"
18,COc1ccc(S(=O)(=O)N2CCCCC2)cc1NC(=O)Cn1cnc2ccccc2c1=O,"inconclusive: 44.7 µM [inhibitor, partial curve, poor fit]"
19,CCn1c2ccccc2c2cc(/C=N/NC(=O)c3cc(O)cc(O)c3)ccc21,"inconclusive: 39.8 µM [inhibitor, single point]"
20,O=C(NCC1CCCO1)c1sc(=S)n2c1[nH]c(=O)c1ccc(C(=O)N3CCCCC3)cc12 (stereo not given),"inconclusive: 2.82 µM [inhibitor, full curve, poor fit]"

# Some of the entries so far, with tabs:
row	Structure (SMILES)	Potency
1	CCN(CC)c1ccc2cc(-c3nc(-c4cc5ccccc5oc4=O)cs3)c(=O)oc2c1	inconclusive: 11.2 µM [inhibitor, partial curve, poor fit]
14	CC(=O)n1nc(-c2ccco2)nc1N	inconclusive: 39.8 µM [inhibitor, single point]
15	Cc1cccc(OCC(=O)N/N=C/C=C/c2ccco2)c1	inconclusive: 20 µM [inhibitor, full curve, poor fit]
16	CSc1ccc(CCNC(=O)C(C)n2nc(C)c3sc4ccccc4c3c2=O)cc1 (stereo not given)	inactive
2	CC(NS(C)(=O)=O)C(c1cccs1)N1CCN(c2ccccc2)CC1 (stereo not given)	inconclusive: 100 µM [inhibitor, single point]
9	CNC(=O)C(=O)Nc1nc(C23CC4CC(CC(C4)C2)C3)cs1	inconclusive: 79.4 µM [inhibitor, partial curve, poor fit]
16	CNS(=O)(=O)c1cc(O)c2c(S(=O)(=O)NC)cccc2c1	inconclusive: 39.8 µM [inhibitor, single point]
17	Cc1cc(C)n2nc(/C(C#N)=C/c3ccccn3)c(C#N)c2n1	inconclusive: 20 µM [inhibitor, partial curve, poor fit]
